# Data published in PubChem BioAssay AID1259415 (National Center for Advancing Translational Sciences (NCATS), 2018).
# The whole screen tested about 410,000 compounds, of which about 18,000 (4.4%) were called active. The shares of active, inactive and inconclusive entries below differ from those in the screen. No stated cut-off is given here; in the data, active means activity change below about -60%; inconclusive means no clear call, values can overlap the other calls; inactive means above about -39%. Some compounds were tested as several samples or in several runs, with calls that do not always agree.
# Experiment: qHTS Assay for inhibitors of the human cytomegalovirus (HCMV)
# Details: HFF cells, HCMV-luciferase reporter, 72 h; at 57.5 µM; hits give low values
# How it was run: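 Inhibition of viral replication was scored as loss of reporter luminescence in HFFs infected with HCMV-luciferase (MOI 1 PFU/cell) for 72 h; compounds tested at 2 doses, normalized to buffer and Salinomycin controls.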
# On the % scale 0 is the no-effect control and ±100 the full control effect.
row,Structure (SMILES),"activity change, negative = inhibition"
1,COc1ccccc1Oc1ccc(S(=O)(=O)NCc2ccccn2)cc1,inconclusive: -53%
2,CC(=O)Nc1ccc(NC(=O)c2ccccc2CCc2ccccc2)cc1,inconclusive: -40.9%
3,CC(=O)c1nnn(-c2ccc([N+](=O)[O-])cc2)c1C,inconclusive: -46.2%
4,CCN1CCc2nc3sc(C(=O)Nc4cccnc4Cl)c(N)c3cc2C1,inconclusive: -51.8%
5,CCOC(=O)c1c(NC(=O)c2cccs2)sc2c1CC(C)(C)OC2,inactive: -34.3%
6,O=C(CSc1nccn1-c1ccccc1)c1ccc(Cl)cc1,inactive: -20.5%
7,CC1CCN(c2ccc(NC(=O)c3cccc(Cl)c3)cc2C(=O)O)CC1,inactive: 13%
8,COc1ccc(C(=O)C2CCCN(Cc3cccn3-c3ccccn3)C2)c(OC)c1 (configuration not stated),active: -66.7%
9,Cc1ccccc1N1CCN(C2CCCN(C(=O)c3ocnc3C)C2)CC1 (configuration not stated),inconclusive: -42.4%
10,CCOC(=O)C(=O)C1=C(N2CCOCC2)/C(=C\c2ccc(F)cc2)CC1,inconclusive: -53.7%
11,COc1cc2c(=O)n(-c3ccc(C)cc3)c(=O)n(CC(=O)c3ccc4c(c3)OCO4)c2cc1OC,inconclusive: -53.3%
12,COC(=O)CCCn1nc(NC(=O)c2ccco2)cc1C,inconclusive: -51.5%
13,CC(C)CNC(=O)COC(=O)Cc1ccc(Cl)cc1,inconclusive: -47.6%
14,O=[N+]([O-])c1cccc(NC(=S)N2CCc3ccccc3C2)c1,inconclusive: -43.5%
15,CCOC(=O)C1=C(C)NC(C)=C(C(=O)OCC)C1c1ccccn1,active: -98.9%
16,CC(C)(C)CN1CCNC[C@H]1Cc1cccc2ccccc12,inactive: 61.6%
17,COc1ccc(NC(=O)C2CCCN(CCCc3ccccc3)C2)cc1OCC(C)C (configuration not stated),active: -91.2%
18,CCc1ccc(-n2c(SC(CC)C(=O)N(CC)CC)nc3n[nH]c(C)c3c2=N)cc1 (configuration not stated),active: -83.6%
19,CCOC(=O)N1CCN(S(=O)(=O)N2CCCC(C(=O)NCc3cc(OC)ccc3OC)C2)CC1 (configuration not stated),inconclusive: -49.3%
20,O=C(Nc1ccc2c(c1)CCC2)c1ncoc1-c1ccccc1F,inconclusive: -59.3%
21,COc1ccccc1NC(=O)c1oc2ccc(C)cc2c1C,inactive: 36.9%
22,NC1=NC(c2cccnc2)n2c(nc3ccccc32)N1 (configuration not stated),inactive: 11.5%

# Shown as tab-separated lines: part of the list above
row	Structure (SMILES)	activity change, negative = inhibition
12	COC(=O)CCCn1nc(NC(=O)c2ccco2)cc1C	inconclusive: -51.5%
13	CC(C)CNC(=O)COC(=O)Cc1ccc(Cl)cc1	inconclusive: -47.6%
14	O=[N+]([O-])c1cccc(NC(=S)N2CCc3ccccc3C2)c1	inconclusive: -43.5%
15	CCOC(=O)C1=C(C)NC(C)=C(C(=O)OCC)C1c1ccccn1	active: -98.9%

# (further entries)

row,Structure (SMILES),"activity change, negative = inhibition"
1,CCN(CC1COc2ccccc2O1)C(=S)Nc1ccc(F)cc1 (configuration not stated),inconclusive: -55.8%
2,CC1=CSC2=NC(=O)/C(=C\c3cccn3-c3ccccc3)C(=N)N12,inconclusive: -40.4%
3,CCCCC(=O)NC(c1cccs1)c1cc(Cl)c2cccnc2c1O (configuration not stated),active: -99.5%
4,Cc1ccc(NC(=O)CN(C)Cc2cccs2)cc1Cl,inconclusive: -44.7%
5,COc1ccc(C2=NO[C@@H]3[C@@H]4C[C@@H]([C@H]5C(=O)N(C)C(=O)[C@@H]45)[C@H]23)c(OC)c1,inconclusive: -55%
6,CNC(=S)N/N=C1\C(=O)c2cccc3cccc1c23,active: -106%
7,O=C(CSc1nnnn1C1CC1)N1CCN(Cc2ccccc2F)CC1,active: -69%
8,COc1ccc(NC(=O)c2sc3nc(N4CCCC4)c4c(c3c2N)CC(C)(C)OC4)cc1,inconclusive: -46.3%
9,COc1ccccc1NC(=O)COc1cccc(-n2cnnn2)c1,inconclusive: -43.4%
10,Cc1cc(C)n2nc(C(=O)Nc3ccc(N4CCOCC4)cc3)nc2n1,inconclusive: -59.7%
11,Cc1nc(Nc2cccc(O)c2)c2c3c(sc2n1)CCC3,inconclusive: -41.4%
12,Cc1cccc(N2CCN(C(=O)c3cn(C4CCCCC4)c(=O)c4c3c3ccccc3n4C)CC2)c1C,inactive: -16.2%
13,O=C(O)c1cccc(NN=C2c3ccccc3-c3ccccc32)c1,inconclusive: -43.1%
14,CN(C)c1ccc(/C=C/c2nc3ccccc3c(=O)[nH]2)cc1,inactive: 25.2%
15,CSc1ncccc1C(=O)OCC(=O)N(CC(C)C)C1CCS(=O)(=O)C1 (configuration not stated),inactive: 36.4%
16,Cc1cc(C(=O)N/N=C/c2ccc([N+](=O)[O-])cc2)c(C)o1,inactive: -14.7%
17,O=C(NC1CC1)c1nc(Cn2cc([N+](=O)[O-])cn2)no1,inactive: 1.91%
18,CN(C)c1ccc(C=NNc2nc3c([nH]2)c(=O)n(C)c(=O)n3C)cc1,inactive: -24.2%
19,CC#CC(=O)N1CCC(n2nccc2NC(=O)c2ccc3c(c2)OCO3)CC1,inconclusive: -53.2%
20,Nc1c(Br)cc(Br)c2c1-c1ccc([N+](=O)[O-])cc1C2,active: -80.4%
21,COc1nc(N)nc(N)c1NS(=O)(=O)c1ccc(C)cc1,inconclusive: -44.8%
22,O=C1N(Cc2cccnc2)C[C@@H]2C[C@@H](c3cccc(OCc4ccccc4)c3)N3CCC[C@@]123,inconclusive: -59.9%

row,Structure (SMILES),"activity change, negative = inhibition"
1,CCOC(=O)NC1CCc2cc(OC)c(OC)c(OC)c2-c2ccc(SC)c(=O)cc21 (configuration not stated),active: -72.1%
2,Cc1cccc(NC(=O)C2(C)CC3c4ccccc4C2c2ccccc23)c1C (configuration not stated),inconclusive: -41.3%
3,CN(CC(=O)NC1CCCc2ccccc21)S(=O)(=O)c1cccs1 (configuration not stated),active: -73.8%
4,COc1cscc1C(=O)O,inactive: 6.85%
5,O=C(NCc1ccc(F)cc1)C(=O)Nc1nc(C23CC4CC(CC(C4)C2)C3)cs1,inconclusive: -42.3%
6,C[C@H](N)CN1CCc2ccc(Br)cc21,inconclusive: -53.2%
7,CN(CCC#N)C(=O)c1cc2c(Cl)nc3ccccc3c2s1,inconclusive: -49.2%
8,O=C(OCC(=O)N1CCCCCC1)c1ccc[nH]c1=O,active: -60.1%
9,CC(NC(=S)NC1CCCCC1)c1ccc(C(C)(C)C)cc1 (configuration not stated),active: -97.2%
10,Cc1ccc(C(Nc2ccccn2)c2ccc3cccnc3c2O)cc1 (configuration not stated),active: -64.3%
11,OCCN1CCN(c2nc(-c3ccccc3)c3cc(Cl)ccc3n2)CC1,inconclusive: -44.6%
12,COC(=O)C1C(O)C(C)C(O)C(C)(O)/C=C\C=C(/C)C(=O)Nc2c(C)c(OC(C)=O)c3c(c2O)C(=O)C(C)=C2OCOC(=C23)/C(C)=C/C(C)(O)C(O)C(C)C1O (configuration not stated),inactive: 34%
13,Cc1nnc(SCc2cc([N+](=O)[O-])cc3c2OCOC3)[nH]c1=O,inconclusive: -51.7%
14,COc1cc(Cl)c(NS(=O)(=O)c2ccc3c(c2)CC(C)N3C(=O)C2CCC2)c(OC)c1 (configuration not stated),active: -86.3%
15,COc1ccc(N(Cc2cc3ccccc3[nH]c2=O)S(=O)(=O)c2ccccc2)cc1,inconclusive: -47.9%
16,Cc1ccnc2nc(C(=O)OCCOc3ccc(F)cc3)nn12,inconclusive: -56.4%
17,CS(=O)(=O)Nc1ccc(C(=O)Nc2ccccc2C(=O)N2CCCC2)cc1,inactive: 47.8%
18,CCc1ccc(NC(=O)CC2C(=O)N(c3cccc(OC)c3)C(=O)N2Cc2ccco2)cc1 (configuration not stated),inconclusive: -48.9%
19,Cc1cccc(NC(=O)CSc2nc3ccccc3c(=O)n2C)c1C,active: -68%
20,CC(C)N(Cc1nc(-c2ccc(Cl)cc2)no1)Cc1nccn1C,inconclusive: -41.8%
21,COc1cc(Cl)c(C)cc1NC(=O)Cc1ccc(OC)c(OC)c1,inactive: -33.7%
22,O=S(=O)(c1ccc(C2CCCCC2)cc1)N1CCOCC1,inconclusive: -58.5%

row,Structure (SMILES),"activity change, negative = inhibition"
1,CCCN(CC(=O)Nc1ccccc1C)C(=O)COc1c(Cl)cccc1Cl,inactive: 5.6%
2,O=C(Nc1nc2ccccc2s1)C1c2ccccc2Oc2ccccc21,inconclusive: -59.8%
3,Cc1ccc(Cn2nc(C)c(NC(=O)c3cc(-c4ccc5c(c4)OCO5)on3)c2C)cc1,active: -60.3%
4,CCC(NC(=O)C(C)NC)C(=O)N1CCCC1C(=O)NC1CCCc2ccccc21 (configuration not stated),inconclusive: -48.6%
5,CCCNC1=C(C)C(=O)C2=C(C1=O)C(COC(N)=O)[C@]1(OC)C3NC3CN21 (some centres not stated),active: -69.2%
6,CCOc1ccccc1N(CC)C(=O)Nc1cn(C)c(=O)c2ccccc12,inconclusive: -43.6%
7,CCN(CC)c1ccc(-c2nn3c(-c4n[nH]c5c4CCC5)nnc3s2)cc1,inactive: 35%
8,CCC(Sc1nc(C)cc(C)n1)C(=O)Nc1cc(C)on1 (configuration not stated),inconclusive: -45.4%
9,CCCC(=O)N(CC(=O)Nc1sc(C)c(C)c1C(N)=O)Cc1ccccc1,inconclusive: -53.5%
10,Cc1cc(C(=O)COc2cc(F)ccc2[N+](=O)[O-])c(C)n1CC1CCCO1 (configuration not stated),active: -65.7%
11,CC(=O)N(CCc1ccccc1)c1ccc2c(c1)C1CC2CCN1C(=O)OCc1ccccc1 (configuration not stated),inconclusive: -49.1%
12,C=CCn1c(O)c(C2=c3ccccc3=NC2=O)s/c1=N/c1nccs1,inconclusive: -48%
13,O=C(CN1CCN(S(=O)(=O)c2ccc(Br)cc2)CC1)N/N=C/c1cccs1,inconclusive: -47.2%
14,Cc1ccc(OCC(=O)Nc2cc(S(=O)(=O)N3CCOCC3)ccc2Cl)c([N+](=O)[O-])n1,inactive: -23.9%
15,COc1ccc(NC(=O)CSc2nc(C3CC3)nc3ccccc23)cc1,inconclusive: -40.6%
16,CC1CCCN(c2ccc(N)cc2C(N)=O)C1 (configuration not stated),inconclusive: -40.5%
17,COCc1nnc(NC(=O)c2ccc(S(=O)(=O)N3CCCC3)cc2)o1,active: -60.8%
18,CCOC(=O)C(=C1Nc2ccccc2N1)n1c(-c2cccnc2)nc2ccccc21,inactive: 144%
19,Cc1cc(C)n2c(SCC(=O)Nc3ccc(F)cc3F)nnc2n1,inconclusive: -43.7%
20,C[C@H](c1ccccc1)N1C[C@@H](COCc2ccccc2)Oc2cccc(Oc3ccc(C(C)(C)C)cc3)c2S1(=O)=O,inconclusive: -53.9%
21,CCCn1c(=O)c2c(nc3n2CCCN3CCc2ccccc2)n(C)c1=O,active: -62.3%
